Data: article PMC11282044
These are yes or no findings as the source states them, for the method shown. Binding seen in cells or lysates may run through a third protein. Some binding calls cover weakened binding; strength is not graded here. Where a sequence is shown, tags or fusion partners need not be part of it. One block for each binder: values may come before it.

Tests used:
[1] = biological target: T1, cLUC-ROC1 (rice) (UniProt Q6ZAR0); assay: split reporter; luciferase complementation imaging (LCI) in N. benthamiana leaves, 2 days after infiltration, CCD camera
T1 sequence: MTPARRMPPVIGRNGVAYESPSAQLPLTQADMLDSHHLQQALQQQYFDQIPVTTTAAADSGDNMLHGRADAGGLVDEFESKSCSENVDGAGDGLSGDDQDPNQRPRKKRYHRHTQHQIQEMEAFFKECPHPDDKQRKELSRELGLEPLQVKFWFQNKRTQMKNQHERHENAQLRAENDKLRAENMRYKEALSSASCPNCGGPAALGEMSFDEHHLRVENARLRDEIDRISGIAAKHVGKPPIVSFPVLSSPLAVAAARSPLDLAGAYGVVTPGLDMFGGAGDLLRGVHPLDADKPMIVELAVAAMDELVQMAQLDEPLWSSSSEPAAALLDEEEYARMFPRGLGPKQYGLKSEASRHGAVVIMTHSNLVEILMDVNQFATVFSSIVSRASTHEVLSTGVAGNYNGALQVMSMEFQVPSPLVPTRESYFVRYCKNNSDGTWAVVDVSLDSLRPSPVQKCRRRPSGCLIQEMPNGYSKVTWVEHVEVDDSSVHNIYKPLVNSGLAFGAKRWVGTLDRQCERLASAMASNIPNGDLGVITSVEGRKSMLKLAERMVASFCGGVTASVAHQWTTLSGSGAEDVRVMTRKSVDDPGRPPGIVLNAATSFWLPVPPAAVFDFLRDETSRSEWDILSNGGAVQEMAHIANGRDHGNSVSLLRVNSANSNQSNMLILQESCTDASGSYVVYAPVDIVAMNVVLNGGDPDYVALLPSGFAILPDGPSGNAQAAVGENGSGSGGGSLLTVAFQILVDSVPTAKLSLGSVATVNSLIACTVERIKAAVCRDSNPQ

[2] = biological target: T1, cLUC-ROC1 (rice); assay: split reporter; LCI interaction intensity assay: combinations injected into the same N. benthamiana leaves, with pGreenII 0800-LUC co-transformed; LUC by CCD and LUC/REN by dual luciferase assay, n = 5
[3] = biological target: T2, ROC1-Flag (rice) (UniProt Q6ZAR0); assay: co-IP; ROC1-Flag co-expressed with GFP fusions in N. benthamiana; extract in NB1 buffer; anti-FLAG affinity beads, 3 h, 6 washes; blot with anti-GFP
T2 sequence: T1 sequence

B3: ROC5-nLUC (protein, UniProt Q6EPF0 1-804)
chain: MSFGGLFDGGGGGGMQFPFASGFASSPALSLALDNAGGGIGGRMLGGGAGAGSSAGGAMTRDTEAENDSRSGSDHLDAISAAGEDDVEDAEPSNSRKRKKRYHRHTPQQIQELEALFKECPHPDEKQRAELSRRLSLDARQVKFWFQNRRTQMKTQLERHENALLKQENDKLRAENMTIREAMRSPMCGSCGSPAMLGEVSLEEQHLRIENARLKDELNRVCALATKFLGKPISLLSPPPLLQPHLSLPMPNSSLELAIGGIGGLGSLGTLPGCMNEFAGGVSSPMGTVITPARATGAAIPSLVGNIDRSVFLELAISAMDELVKMAQMDDPLWVPALPGSPSKEVLNFEEYLHSFLPCIGMKPAGYVSEASRESGLVIIDNSLALVETLMDERRWSDMFSCMIAKATVLEEVSTGIAGSRNGALLLMKAELQVLSPLVPIREVTFLRFCKQLAEGAWAVVDVSIDGLVRDHNSGTAPTGGNVKCRRVPSGCVMQDTPNGYCKVTWVEHTEYDEASVHQLYRPLLRSGLAFGARRWLATLQRQCECLAILMSSATVTANDSTAISQEGKRSMLKLARRMTENFCAGVSASSAREWSKLDGATGSIGEDVRVMARKSVSEPGEPPGVVLSAATSVWVPVAPEKLFNFLRDEQLRAEWDILSNGGPMQEMTQIAKGQRDGNSVSLLRASAVSANQSSMLILQETCTDASGSIVVYAPVDIPAMQLVMNGGDSTYVALLPSGFAILPDGPRIGATGYETGGSLLTVAFQILVNNQPTAKLTVESVETVNNLISCTIKKIKTALQCDA
binding [1]: binds
binding [2]: binds

B4: ROC1-nLUC (protein, UniProt Q6ZAR0 1-784)
chain: T1 sequence
binding [1]: binds
binding [2]: binds weakly

Next, values leading:

binding [1]: binds
binding [2]: binds
B1: ROC8-nLUC (protein, UniProt Q69T58 1-710)
chain: MDFGDEPEGSDSQRRRKRYHRHTPRQIQQLEAMFKECPHPDENQRAQLSRELGLEPRQIKFWFQNRRTQMKAQHERADNCFLRAENDKIRCENIAIREALKNVICPTCGGPPVGEDYFDEQKLRMENARLKEELDRVSNLTSKYLGRPFTQLPPATPPMTVSSLDLSVGGMGGPSLDLDLLSGGSSGIPFQLPAPVSDMERPMMAEMATRAMDELIRLAQAGDHIWSKSPGGGVSGGDARETLNVDTYDSIFSKPGGSYRAPSINVEGSRESGLVLMSAVALADVFMDTNKWMEFFPSIVSKAHTIDVLVNGMGGRSESLILMYEELHIMTPAVPTREVNFVRYCRQIEQGLWAIADVSVDLQRDAHFGAPPPRSRRLPSGCLIADMANGYSKVTWVEHMEVEEKSPINVLYRDLVLSGAAFGAHRWLAALQRACERYASLVALGVPHHIAGVTPEGKRSMMKLSQRMVNSFCSSLGASQMHQWTTLSGSNEVSVRVTMHRSTDPGQPNGVVLSAATSIWLPVPCDHVFAFVRDENTRSQWDVLSHGNQVQEVSRIPNGSNPGNCISLLRGLNASQNSMLILQESCTDASGSLVVYSPIDIPAANVVMSGEDPSSIPLLPSGFTILPDGRPGSAAGASTSSAGPLAAARGGGGGGAGGGSVVTVAFQILVSSLPSSKLNAESVATVNGLITTTVEQIKAALNCSAHGHHP

binding [3]: binds
B2: ROC8-GFP (protein, UniProt Q69T58 1-710)
chain: B1 chain
